Test results as given in PMC2747011, “Soybean GmPHD-Type Transcription Regulators Improve Stress Tolerance in Transgenic Arabidopsis Plants”.
These are yes or no findings as the source states them, for the method shown. Binding can be weak; no strength is given.

Assays:
Assay in all cases: two-hybrid; yeast strain YRG2 (Stratagene); pAD-GmPHD6 with pBD constructs; growth on SD-His/Trp/Leu with 10 mM 3-AT and X-gal staining (LacZ)
[1] = molecular target: GmPHD1 (soybean (Glycine max)) (UniProt Q06A73)
[2] = molecular target: GmPHD4 (soybean (Glycine max)) (UniProt Q06A76)
[3] = molecular target: GmPHD5 (soybean (Glycine max)) (UniProt Q06A75)

Measured: binding

GmPHD6 (from UniProt Q06A74)
binds: all assays above
